Laboratory results reported in PubChem BioAssay AID2685 (National Center for Advancing Translational Sciences (NCATS), 2010).
The other results are listed elsewhere or left out. Shown are side measurements of this screen, not its main read-out; they come without a call. Most of these compounds were active or inconclusive in the main read-out, so they are no random draw. The note in brackets gives the kind of curve behind each potency; many fits are weak.

Assay: qHTS Assay for Lipid Storage Modulators in Drosophila S3 Cells;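 as to cell number change: cells counted by Cell Tracker Red CMTPX staining in the red channel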
Conditions: BODIPY lipid droplet fluorescence, 18-24 h; for cell number change: measured here: cell count max response, cells fed with added oleic acid
Outline: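 Drosophila S3 cells loaded with oleic acid (400 uM, as added) and compounds at several concentrations; lipid droplets imaged by 488-nm laser-scanning cytometry, 500–530 nm intensity and object ratio to cell channel. Percent activity normalized to 20 uM Triacsin C.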

[1] = measured here: lipid fluorescence (Fed channel) AC50, cells fed with added oleic acid
[2] = measured here: cell number channel AC50, cells fed with added oleic acid

SMILES | cell number change [%] | AC50 [1] | AC50 [2]
COc1ccc(NC2CCCN(C(=O)c3csc(C(C)C)n3)C2)cc1 (configuration not stated) | -11 | – | –
CCc1nnc(SCC(=O)N2CCCc3ccccc32)nc1CC | 27.6 | 1.64 µM [falling, partial curve] | –
CCCCC(=O)N1CCN(c2nc(-c3ccc(F)cc3)cs2)CC1 | -5.83 | 25.9 µM [falling, single point] | –
CN(CC(=O)Nc1ccc(F)c(F)c1F)C(=O)CC1OC(=O)c2ccccc21 (configuration not stated) | 73 | – | 18.4 µM [rising, partial curve]
CC(Sc1nc2ccc(Br)cc2[nH]1)C(=O)O (configuration not stated) | -35.9 | 0.0731 µM [falling, full curve, poor fit] | 0.164 µM [falling, full curve, poor fit]
Cc1ccc(S(=O)(=O)N2CCOCC2)c2nsnc12 | 11.2 | 0.58 µM [falling, single point] | –
CC1SC(c2ccccc2Cl)NC1=O (configuration not stated) | -33.1 | 1.16 µM [falling, full curve, poor fit] | 3.26 µM [falling, full curve]
O=C(Nc1ccc2oc(Cc3ccc(Cl)cc3)nc2c1)c1cccnc1 | 14 | 4.61 µM [rising, full curve] | –
O=C(CN1CCN(c2ccccc2F)CC1)NCc1ccc(Cl)cc1 | -10.1 | 0.164 µM [rising, partial curve, poor fit] | –
CCOc1ccc(S(=O)(=O)NCCC(=O)NCc2ccncc2)cc1 | 20.4 | 20.6 µM [rising, single point] | –
O=C(CSc1nnc(-c2ccncc2)n1Cc1ccco1)Nc1ccccc1Cl | -6.1 | 0.116 µM [rising, full curve, poor fit] | 0.82 µM [falling, full curve, poor fit]
COc1ccc(-c2noc(C3CCCN(C(=O)c4ccccc4C)C3)n2)cc1 (configuration not stated) | -12.6 | 14.6 µM [falling, single point] | –
COCCn1c(COc2ccc(OC)cc2)nc2ccccc21 | 10.4 | 5.8 µM [rising, full curve] | –
Cc1ccc(Nc2nnc(C)c(=O)[nH]2)cc1 | 22.3 | 32.6 µM [falling, single point] | –
O=C(c1ccc(S(=O)(=O)Nc2ccccc2F)cc1)N1CCC1 | -38.2 | – | 0.146 µM [falling, full curve, poor fit]
c1ccc(N2CCN(c3cnc4ccccc4n3)CC2)cc1 | 57.4 | 3.66 µM [rising, partial curve] | 4.11 µM [rising, full curve]
CCCC(=O)N1CCN(Cc2nc3cc([N+](=O)[O-])ccc3n2C)CC1 | -1.3 | – | –
COc1ccc(NC(=O)NCCCN2CCCC2=O)c(OC)c1 | -74.2 | – | 29.1 µM [falling, single point]
Cn1ncc([N+](=O)[O-])c1C(=O)Nc1ccccc1C(=O)O | 16.8 | – | –
O=S(=O)(c1cccc(-c2nnc3n2CCCCC3)c1)N1CCOCC1 | -3.63 | – | –

Pulled one by one from above (four):
SMILES | cell number change [%] | AC50 [1] | AC50 [2]
COc1ccc(NC2CCCN(C(=O)c3csc(C(C)C)n3)C2)cc1 (configuration not stated) | -11 | – | –
c1ccc(N2CCN(c3cnc4ccccc4n3)CC2)cc1 | 57.4 | 3.66 µM [rising, partial curve] | 4.11 µM [rising, full curve]
O=S(=O)(c1cccc(-c2nnc3n2CCCCC3)c1)N1CCOCC1 | -3.63 | – | –
COc1ccc(-c2noc(C3CCCN(C(=O)c4ccccc4C)C3)n2)cc1 (configuration not stated) | -12.6 | 14.6 µM [falling, single point] | –

Next part:

SMILES | cell number change [%] | AC50 [1] | AC50 [2]
C/C(=N\NC(=O)Cc1ccccc1)c1cccnc1 | 26.1 | 29.1 µM [rising, single point] | –
Cc1sc2ncn(CC(=O)NCCCC(=O)N3CCN(c4ccccc4)CC3)c(=O)c2c1C | -16.2 | 2.59 µM [falling, full curve, poor fit] | 0.82 µM [falling, full curve, poor fit]
O=C(c1cc2cc(F)ccc2[nH]1)N1CCCC(Nc2ccc(F)cc2)C1 (configuration not stated) | – | 6.51 µM [falling, single point] | –
Cn1c(SCC(=O)c2ccccc2)nnc1C1CC1 | -10.8 | 0.00461 µM [falling, full curve] | –
CC1CCC(NC(=O)CC2Oc3ccccc3NC2=O)CC1 (configuration not stated) | 1.58 | 0.00461 µM [rising, full curve, poor fit] | –
COc1ccccc1C(=O)NC(=O)CSc1nnc(N)s1 | 39.6 | 9.2 µM [rising, partial curve, poor fit] | 1.3 µM [rising, full curve, poor fit]
CCC(=O)Oc1ccc(C/C(=N\O)c2ccc(O)cc2O)o1 | 32.5 | – | 0.259 µM [rising, full curve, poor fit]
COc1cccc(OCC(=O)Nc2cc(Cl)ccc2Oc2ccccc2)c1 | 31.2 | 16.4 µM [rising, partial curve] | 20.6 µM [rising, single point]
O=C(Cc1n[nH]c(=O)c2ccccc12)N/N=C/c1cc2c(cc1Cl)OCO2 | 166 | 29.1 µM [falling, single point] | 29.1 µM [rising, single point]
O=C(CCc1c[nH]c2ccccc12)OCc1ccc(Br)cc1 | -11.9 | – | –
COC(=O)c1ccc(OCC(O)CN2CCN(C(=O)c3ccco3)CC2)cc1 (configuration not stated) | -7.75 | 0.58 µM [falling, full curve] | –
CC(C)(C)C1CCC(OC(=O)c2cncc(Br)c2)CC1 (configuration not stated) | -16.5 | 29.1 µM [falling, single point] | –
Cc1c(C)n2c(SCC(=O)N3CCC(C)CC3)nnc2[nH]c1=O | -27.2 | 2.59 µM [falling, full curve, poor fit] | 2.91 µM [falling, single point]
O=C(Nc1ccc(NC(=O)N2CCN(c3ccccc3O)CC2)cc1)N1CCN(c2ccccc2O)CC1 | -26.3 | 5.62 µM [rising, single point] | –
Nc1ccc2c(c1)OCCOCCOCCOCCOCCO2 | 16.6 | – | –
c1ccc2cc(Sc3ncnc4c3oc3ccccc34)ccc2c1 | -37.8 | 20.6 µM [falling, single point] | 14.6 µM [falling, single point]
COc1ccc(OC)c(/C=N/NC(=O)c2cc3c(OC)cc(OC)cc3[nH]2)c1 | -25.5 | 23.1 µM [falling, partial curve, poor fit] | –
O=C(COc1cccnc1[N+](=O)[O-])c1c[nH]c2ccccc12 | -54.7 | – | 29.1 µM [falling, single point]
CCOC(=O)C1=NNC(C(=O)c2ccc(OC)cc2)C1c1ccccc1 (configuration not stated) | 61.1 | 3.66 µM [rising, full curve] | 0.326 µM [rising, full curve]
O=C1CC(Nc2ccc3ccccc3c2)C(=O)N1Cc1ccccc1 (configuration not stated) | 48.5 | 2.59 µM [rising, single point] | 3.66 µM [rising, partial curve]

SMILES | cell number change [%] | AC50 [1] | AC50 [2]
CCOc1cc(/C=N/n2cnnc2)ccc1OC(=O)c1cccc([N+](=O)[O-])c1 | -15.5 | 8.2 µM [falling, partial curve] | –
COC(=O)CCN(C(C)=O)c1ccc(N)cc1 | -14.8 | 29.1 µM [falling, single point] | 6.51 µM [falling, single point]
Cc1nc(Nc2nc(CSc3nc4ccccc4[nH]3)cc(=O)[nH]2)nc2ccccc12 | -40.9 | 16.4 µM [falling, single point] | 0.164 µM [falling, full curve, poor fit]
COc1ccc(-c2nc(SC(CC(=O)NCCO)c3cccs3)n[nH]2)cc1 (configuration not stated) | – | 6.51 µM [rising, single point] | –
COc1ccccc1COC(=O)C(NC(=O)c1ccc(C)cc1)C(C)C (configuration not stated) | -19 | – | –
Cc1ccc(N2C(=O)[C@@H]3[C@H](C2=O)[C@H]2C=C(C(=O)c4ccccc4)C=CN2[C@@H]3C(=O)c2ccc(Cl)cc2)cc1 | 4.24 | 7.31 µM [falling, single point] | –
O=C(Nc1cccc(F)c1)Nc1cccc(Cl)c1 | -28.1 | 29.1 µM [falling, single point] | –
COc1cccc(CN(CC(=O)NCC2CCCO2)C(=O)CCC(=O)Nc2cc(C)on2)c1 (configuration not stated) | -8.37 | – | –
C/C(=N\N1CCN(c2ccccc2)CC1)c1ccc(O)cc1 | 11.1 | – | –
O=C(CN1CCCC1)Nc1ccc([N+](=O)[O-])cc1 | 96.3 | – | 23.1 µM [rising, single point]
Cc1ccccc1C(=O)Nc1ccnn1C1CCN(Cc2cccnc2)CC1 | -0.645 | 25.1 µM [rising, partial curve, poor fit] | –
CC(c1ccccc1)N1C(=O)/C(=C/c2ccncc2)SC1=S (configuration not stated) | -53 | 29.1 µM [falling, single point] | 29.1 µM [falling, single point]
CC(C)Cn1c(N)c(C(=O)CSc2ncccn2)c(=O)n(C)c1=O | – | – | 2.31 µM [rising, partial curve]
O=C(O)CCc1ccc(-c2cccs2)n1NC(=O)c1ccccc1Br | -8.18 | 23.1 µM [falling, partial curve, poor fit] | 0.13 µM [falling, full curve]
Nc1nnc(SCC(=O)OCC(=O)NC2CCCCC2)s1 | -54.2 | 14.6 µM [falling, partial curve] | 16.4 µM [falling, partial curve, poor fit]
CC(=O)c1cccc(NC(=O)N2CCCC2C(=O)NCc2ccc(C)cc2)c1 (configuration not stated) | – | 6.51 µM [rising, single point] | –
CCc1ccc(NC(=S)N2CCC(NC(=O)c3ccccc3)CC2)cc1 | 20.5 | 29.1 µM [rising, single point] | –
Cc1cccn2c(=O)c(C=O)c(Nc3ccccc3)nc12 | 5.98 | 0.651 µM [falling, single point] | –
Cc1ccc(C(C(=O)Nc2ccc3c(c2)OCO3)N(C)C(=O)Cc2c[nH]c3ccccc23)cc1 (configuration not stated) | 15.2 | 2.59 µM [rising, partial curve] | –
